The other results are listed elsewhere or left out.
Compound: CC1Cc2ccccc2N1C(=O)C1CCCN(C1)C(=O)CCl (mixture of isomers) [TRIM25 ligand 11 (diastereomer mixture)]
Test: probe-labelled cysteine peptide fold change vs DMSO (competition) (log2 fold change); higher = less target engagement (more negative = stronger competition)
Conditions: THP-1, incubation time: 4 h
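Note: competitive chemoproteomic profiling in live THP-1 cells with an iodoacetamide desthiobiotin (IA-DTB) probe, comparing probe-labelled peptide intensities in compound-treated cells against DMSO-treated controls.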

Chains of the proteins cited; added tags and fusions are not shown. Lines headed by an entry give the natural chain unless they say otherwise; changes in a name come on top.
UniProt P22626: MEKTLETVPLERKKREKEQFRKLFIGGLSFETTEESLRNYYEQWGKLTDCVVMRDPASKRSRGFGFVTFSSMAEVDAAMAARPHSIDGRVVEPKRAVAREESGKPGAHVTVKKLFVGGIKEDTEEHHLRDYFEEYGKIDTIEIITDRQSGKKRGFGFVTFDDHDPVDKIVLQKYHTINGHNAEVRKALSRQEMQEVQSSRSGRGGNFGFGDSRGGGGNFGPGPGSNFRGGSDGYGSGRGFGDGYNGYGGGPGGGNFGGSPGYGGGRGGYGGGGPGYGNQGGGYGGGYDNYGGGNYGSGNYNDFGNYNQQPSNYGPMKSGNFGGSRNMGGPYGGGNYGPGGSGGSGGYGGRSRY
UniProt O95757: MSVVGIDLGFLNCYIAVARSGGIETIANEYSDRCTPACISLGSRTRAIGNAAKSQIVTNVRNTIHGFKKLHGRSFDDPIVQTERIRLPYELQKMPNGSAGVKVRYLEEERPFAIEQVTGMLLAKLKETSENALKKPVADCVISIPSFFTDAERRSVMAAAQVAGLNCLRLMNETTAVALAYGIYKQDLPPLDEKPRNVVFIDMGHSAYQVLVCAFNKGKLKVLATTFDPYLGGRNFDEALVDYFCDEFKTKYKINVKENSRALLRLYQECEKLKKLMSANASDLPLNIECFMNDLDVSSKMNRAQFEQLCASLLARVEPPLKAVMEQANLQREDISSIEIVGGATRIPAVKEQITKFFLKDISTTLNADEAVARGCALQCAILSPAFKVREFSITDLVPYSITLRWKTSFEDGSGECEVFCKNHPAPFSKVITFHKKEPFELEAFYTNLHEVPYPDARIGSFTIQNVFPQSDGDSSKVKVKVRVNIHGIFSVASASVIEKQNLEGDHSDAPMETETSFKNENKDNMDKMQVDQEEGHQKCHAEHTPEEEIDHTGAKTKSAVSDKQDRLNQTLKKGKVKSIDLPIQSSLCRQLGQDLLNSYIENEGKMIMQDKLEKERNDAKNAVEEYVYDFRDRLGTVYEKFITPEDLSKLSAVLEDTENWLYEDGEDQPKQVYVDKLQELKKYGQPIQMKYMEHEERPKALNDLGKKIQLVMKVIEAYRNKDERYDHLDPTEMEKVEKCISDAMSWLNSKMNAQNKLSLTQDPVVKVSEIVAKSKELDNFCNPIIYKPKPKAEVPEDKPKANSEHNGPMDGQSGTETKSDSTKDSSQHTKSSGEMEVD
UniProt Q92598: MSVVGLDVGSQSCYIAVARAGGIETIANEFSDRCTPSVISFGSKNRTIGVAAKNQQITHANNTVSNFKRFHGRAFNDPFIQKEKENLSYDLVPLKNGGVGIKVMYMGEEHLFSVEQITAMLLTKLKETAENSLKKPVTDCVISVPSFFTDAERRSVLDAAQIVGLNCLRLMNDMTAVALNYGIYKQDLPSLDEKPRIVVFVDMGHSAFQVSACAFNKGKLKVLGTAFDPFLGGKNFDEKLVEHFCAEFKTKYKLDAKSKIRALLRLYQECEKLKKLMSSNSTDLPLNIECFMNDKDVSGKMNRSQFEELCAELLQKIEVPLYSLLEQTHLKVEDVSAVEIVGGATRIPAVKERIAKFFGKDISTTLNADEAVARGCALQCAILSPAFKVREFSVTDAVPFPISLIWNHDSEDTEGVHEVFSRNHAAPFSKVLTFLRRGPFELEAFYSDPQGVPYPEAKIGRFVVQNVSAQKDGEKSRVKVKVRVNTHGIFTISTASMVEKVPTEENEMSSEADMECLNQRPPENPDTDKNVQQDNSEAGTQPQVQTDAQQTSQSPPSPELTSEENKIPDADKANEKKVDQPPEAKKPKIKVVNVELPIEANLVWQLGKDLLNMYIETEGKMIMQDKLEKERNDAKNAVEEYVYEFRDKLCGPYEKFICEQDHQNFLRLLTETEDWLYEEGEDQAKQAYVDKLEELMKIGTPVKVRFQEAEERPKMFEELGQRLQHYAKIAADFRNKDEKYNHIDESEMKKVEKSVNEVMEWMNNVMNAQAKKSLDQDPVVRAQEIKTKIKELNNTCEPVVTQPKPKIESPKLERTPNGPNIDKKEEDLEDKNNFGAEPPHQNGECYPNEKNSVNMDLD
UniProt O43390: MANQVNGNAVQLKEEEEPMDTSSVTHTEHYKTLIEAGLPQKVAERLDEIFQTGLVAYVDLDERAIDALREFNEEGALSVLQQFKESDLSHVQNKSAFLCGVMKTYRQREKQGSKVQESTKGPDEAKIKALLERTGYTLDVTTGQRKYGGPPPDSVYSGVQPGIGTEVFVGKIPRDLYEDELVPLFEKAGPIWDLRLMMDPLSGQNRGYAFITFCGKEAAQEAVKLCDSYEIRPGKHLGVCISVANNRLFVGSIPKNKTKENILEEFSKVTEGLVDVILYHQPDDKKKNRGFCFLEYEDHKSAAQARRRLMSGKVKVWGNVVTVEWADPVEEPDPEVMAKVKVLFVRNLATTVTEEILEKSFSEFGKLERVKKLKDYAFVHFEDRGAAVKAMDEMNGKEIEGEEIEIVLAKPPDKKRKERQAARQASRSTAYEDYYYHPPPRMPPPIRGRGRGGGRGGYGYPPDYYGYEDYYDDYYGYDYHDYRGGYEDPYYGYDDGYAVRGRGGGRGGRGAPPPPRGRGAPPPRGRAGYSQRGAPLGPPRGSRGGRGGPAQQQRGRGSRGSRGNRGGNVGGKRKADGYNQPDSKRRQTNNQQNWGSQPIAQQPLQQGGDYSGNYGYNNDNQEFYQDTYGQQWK
UniProt P51659: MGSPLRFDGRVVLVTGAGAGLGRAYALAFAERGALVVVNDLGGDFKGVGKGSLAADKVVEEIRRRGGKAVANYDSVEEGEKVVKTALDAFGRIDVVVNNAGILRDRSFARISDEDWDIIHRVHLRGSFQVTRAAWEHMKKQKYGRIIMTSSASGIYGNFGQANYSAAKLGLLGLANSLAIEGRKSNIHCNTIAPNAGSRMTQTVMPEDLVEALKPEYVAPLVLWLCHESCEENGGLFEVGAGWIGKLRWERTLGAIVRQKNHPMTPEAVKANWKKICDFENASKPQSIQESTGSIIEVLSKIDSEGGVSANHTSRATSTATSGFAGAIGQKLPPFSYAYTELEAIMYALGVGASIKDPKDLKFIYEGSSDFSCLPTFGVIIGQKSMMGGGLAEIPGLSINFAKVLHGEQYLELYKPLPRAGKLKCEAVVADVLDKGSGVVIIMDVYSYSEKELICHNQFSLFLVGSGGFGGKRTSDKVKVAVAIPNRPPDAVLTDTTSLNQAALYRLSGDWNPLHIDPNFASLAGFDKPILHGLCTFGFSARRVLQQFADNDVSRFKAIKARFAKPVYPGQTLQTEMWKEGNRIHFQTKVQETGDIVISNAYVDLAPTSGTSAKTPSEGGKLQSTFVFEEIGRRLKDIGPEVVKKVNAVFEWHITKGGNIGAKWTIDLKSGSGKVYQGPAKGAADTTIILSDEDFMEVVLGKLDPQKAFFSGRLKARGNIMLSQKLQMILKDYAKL
UniProt Q969F9: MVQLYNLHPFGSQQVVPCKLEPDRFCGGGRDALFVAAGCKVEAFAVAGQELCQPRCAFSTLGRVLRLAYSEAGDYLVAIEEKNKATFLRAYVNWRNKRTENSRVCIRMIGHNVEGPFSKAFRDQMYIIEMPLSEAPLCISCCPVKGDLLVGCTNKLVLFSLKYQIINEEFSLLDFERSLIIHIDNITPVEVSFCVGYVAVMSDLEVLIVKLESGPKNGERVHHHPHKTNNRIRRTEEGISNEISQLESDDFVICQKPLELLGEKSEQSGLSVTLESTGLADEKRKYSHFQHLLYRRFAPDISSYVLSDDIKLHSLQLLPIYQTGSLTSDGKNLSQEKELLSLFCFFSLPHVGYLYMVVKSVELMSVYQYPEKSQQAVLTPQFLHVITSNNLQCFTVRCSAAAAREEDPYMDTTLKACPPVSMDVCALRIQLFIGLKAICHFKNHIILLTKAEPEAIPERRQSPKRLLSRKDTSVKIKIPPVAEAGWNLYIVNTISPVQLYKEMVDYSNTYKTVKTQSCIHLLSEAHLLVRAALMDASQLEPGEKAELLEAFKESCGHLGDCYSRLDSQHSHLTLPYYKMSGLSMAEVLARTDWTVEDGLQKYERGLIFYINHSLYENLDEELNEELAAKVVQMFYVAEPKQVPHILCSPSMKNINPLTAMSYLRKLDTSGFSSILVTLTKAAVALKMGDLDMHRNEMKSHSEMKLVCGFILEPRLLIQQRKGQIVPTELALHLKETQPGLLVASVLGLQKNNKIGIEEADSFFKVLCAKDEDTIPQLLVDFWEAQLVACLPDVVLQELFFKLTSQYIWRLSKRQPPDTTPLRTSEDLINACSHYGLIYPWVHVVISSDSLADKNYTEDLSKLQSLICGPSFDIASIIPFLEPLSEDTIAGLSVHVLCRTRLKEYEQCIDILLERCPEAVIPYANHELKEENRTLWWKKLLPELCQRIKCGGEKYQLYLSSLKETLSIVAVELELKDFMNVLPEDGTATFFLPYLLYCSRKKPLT
UniProt Q9UPZ3: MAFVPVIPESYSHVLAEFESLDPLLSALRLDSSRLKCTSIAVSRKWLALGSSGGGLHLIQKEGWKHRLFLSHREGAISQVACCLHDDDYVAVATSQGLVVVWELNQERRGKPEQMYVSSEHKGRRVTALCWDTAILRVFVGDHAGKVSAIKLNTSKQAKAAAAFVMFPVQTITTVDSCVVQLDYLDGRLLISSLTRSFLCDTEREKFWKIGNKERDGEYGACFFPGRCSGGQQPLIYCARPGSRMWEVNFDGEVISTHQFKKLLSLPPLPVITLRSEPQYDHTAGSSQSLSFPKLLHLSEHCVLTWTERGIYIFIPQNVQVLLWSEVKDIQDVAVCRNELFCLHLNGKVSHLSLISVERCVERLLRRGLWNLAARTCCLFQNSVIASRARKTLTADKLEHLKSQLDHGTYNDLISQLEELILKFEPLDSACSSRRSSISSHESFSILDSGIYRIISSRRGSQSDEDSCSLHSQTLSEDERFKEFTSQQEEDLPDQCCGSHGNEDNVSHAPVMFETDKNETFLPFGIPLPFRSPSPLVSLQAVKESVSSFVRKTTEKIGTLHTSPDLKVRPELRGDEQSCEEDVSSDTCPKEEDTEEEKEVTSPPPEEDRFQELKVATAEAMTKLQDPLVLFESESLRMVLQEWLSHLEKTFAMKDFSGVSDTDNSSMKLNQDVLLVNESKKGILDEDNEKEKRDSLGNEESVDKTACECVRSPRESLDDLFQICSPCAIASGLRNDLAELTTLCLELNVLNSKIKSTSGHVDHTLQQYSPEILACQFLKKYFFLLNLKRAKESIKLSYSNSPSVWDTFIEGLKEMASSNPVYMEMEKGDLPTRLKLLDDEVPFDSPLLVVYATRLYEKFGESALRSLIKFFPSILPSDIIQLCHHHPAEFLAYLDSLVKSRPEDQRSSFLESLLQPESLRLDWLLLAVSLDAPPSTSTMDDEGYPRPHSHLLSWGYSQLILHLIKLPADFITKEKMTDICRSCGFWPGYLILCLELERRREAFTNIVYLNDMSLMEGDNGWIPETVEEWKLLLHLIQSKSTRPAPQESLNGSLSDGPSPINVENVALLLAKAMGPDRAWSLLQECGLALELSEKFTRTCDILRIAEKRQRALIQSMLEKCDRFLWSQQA
UniProt Q1KMD3: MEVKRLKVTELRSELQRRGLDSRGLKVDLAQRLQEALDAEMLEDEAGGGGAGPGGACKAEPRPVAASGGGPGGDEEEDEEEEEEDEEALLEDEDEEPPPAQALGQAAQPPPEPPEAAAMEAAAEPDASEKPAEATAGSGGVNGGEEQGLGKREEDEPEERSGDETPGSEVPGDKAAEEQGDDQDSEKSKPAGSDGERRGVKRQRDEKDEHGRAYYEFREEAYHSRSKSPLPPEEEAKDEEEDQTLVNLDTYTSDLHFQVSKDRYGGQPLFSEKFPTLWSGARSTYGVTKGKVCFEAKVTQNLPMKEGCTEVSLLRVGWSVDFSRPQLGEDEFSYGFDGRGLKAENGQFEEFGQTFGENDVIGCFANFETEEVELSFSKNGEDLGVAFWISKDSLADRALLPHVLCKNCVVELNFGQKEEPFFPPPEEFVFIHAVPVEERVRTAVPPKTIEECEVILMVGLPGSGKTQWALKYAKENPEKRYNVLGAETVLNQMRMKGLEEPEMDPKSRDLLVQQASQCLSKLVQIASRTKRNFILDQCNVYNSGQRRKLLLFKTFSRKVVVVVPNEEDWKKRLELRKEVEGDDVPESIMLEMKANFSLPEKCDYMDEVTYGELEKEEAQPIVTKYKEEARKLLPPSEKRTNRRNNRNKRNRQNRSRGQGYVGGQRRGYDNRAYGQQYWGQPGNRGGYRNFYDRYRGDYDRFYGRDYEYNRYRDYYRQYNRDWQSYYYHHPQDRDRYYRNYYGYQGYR

Row | Target | probe-labelled cysteine peptide fold change (10 µM) | probe-labelled cysteine peptide fold change (50 µM)
1 | HNRNPA2B1_P22626_50_LTDCVVMRDPASKR (UniProt P22626) | -0.332 | -0.307
2 | HSP90AB1_P08238_366_RVFIMDSCDELIPEYLNFIR (UniProt P08238) | -0.185 | 0.0207
3 | HNRNPK_P61978_185_LFQECCPHSTDR (UniProt P61978) | 0.133 | 0.0489
4 | HSPA4L_O95757_213_NVVFIDMGHSAYQVLVCAFNK (UniProt O95757) | 0.0444 | 0.134
5 | HSPH1_Q92598_13_SVVGLDVGSQSCYIAVAR (UniProt Q92598) | 0.00267 | 0.124
6 | HNRNPR_O43390_292_GFCFLEYEDHK (UniProt O43390) | -0.0538 | -0.0259
7 | HSD17B4_P51659_425_CEAVVADVLDK (UniProt P51659) | 0.214 | 0.154
8 | HPS3_Q969F9_398_CSAAAAREEDPYMDTTLK (UniProt Q969F9) | 0.0216 | 0.0163
9 | HPS5_Q9UPZ3_37_CTSIAVSR (UniProt Q9UPZ3) | 0.138 | 0.265
10 | HNRNPUL2_Q1KMD3_538_RNFILDQCNVYNSGQR (UniProt Q1KMD3) | 0.062 | 0.112
11 | HNRNPUL2_Q1KMD3_538_NFILDQCNVYNSGQR (UniProt Q1KMD3) | -0.0123 | 0.112
12 | HSPA4_P34932_34+38_CTPACISFGPK (UniProt P34932) | -0.17 | -0.134

From entry 7 up to 8, as listed above:
Row | Target | probe-labelled cysteine peptide fold change (10 µM) | probe-labelled cysteine peptide fold change (50 µM)
7 | HSD17B4_P51659_425_CEAVVADVLDK (UniProt P51659) | 0.214 | 0.154
8 | HPS3_Q969F9_398_CSAAAAREEDPYMDTTLK (UniProt Q969F9) | 0.0216 | 0.0163
